The values that follow come from PubChem BioAssay AID2685 (National Center for Advancing Translational Sciences (NCATS), 2010).

Molecules are shown by their SMILES. The list shows a part of the results. Shown are side measurements of this screen, not its main read-out; they come without a call. The list favours compounds with an active or inconclusive main result. Words in brackets tell the shape of the fitted curve; partial curves, single points and poor fits give uncertain potencies.

A short description of the experiment: qHTS Assay for Lipid Storage Modulators in Drosophila S3 Cells.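 As to cell number change: cells counted by Cell Tracker Red CMTPX staining in the red channel.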 The settings on record: BODIPY lipid droplet fluorescence, 18-24 h; for cell number change: measured here: cell count max response, cells fed with added oleic acid. An outline of the steps:
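Drosophila S3 cells got compounds at several concentrations plus oleic acid (400 uM solution). Laser-scanning cytometry with 488 nm excitation read lipid droplets at 500-530 nm and cells at 575-640 nm. Percent activity was relative to 20 uM Triacsin C.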
A general note: qHTS replaces the single test concentration by a dilution series.

[1] abbreviates: measured here: lipid fluorescence (Fed channel) AC50, cells fed with added oleic acid.
[2] abbreviates: measured here: cell number channel AC50, cells fed with added oleic acid.

As to `CSCCC(NC(=O)c1ccco1)C(=O)OC(C)C(=O)NC(=O)NC1CCCCC1` (centres undefined), the concentration at half-maximal activity (AC50) under setting [1] was 0.103 µM [falling, full curve, poor fit].

Consider `Cc1ccc(C)c(OCCOCCN2CCOCC2)c1`, for which, under setting [1], the AC50 is 20.6 µM [falling, partial curve].

Take `COC(=O)C1=C(C)N(CC(C)C)C(=O)C1`: the cell number change was 6.83%. Moreover, the AC50 under setting [1] was 29.1 µM [falling, single point].

As to `COc1cccc(NCc2cc(=O)oc3cc(-c4ccccc4)c(O)cc23)c1`, the cell number change is -31.1%. Further, the AC50 under setting [2] is 29.1 µM [falling, single point]. Moreover, the half-maximal activity concentration (AC50) under setting [1] is 32.6 µM [falling, single point].

`O=C(O)/C(=C\c1ccc(Cl)c([N+](=O)[O-])c1)c1ccc(S(=O)(=O)N2CCCCC2)s1`: the AC50 under setting [1] is 29.1 µM [falling, single point].

With `CC1(C)OC(=O)C2(Cc3ccccc3N3CCCCC32)C(=O)O1` (centres undefined), the cell number change is -27.4%. In addition, under setting [2], the AC50 is 0.461 µM [falling, full curve, poor fit]. Also, the AC50 under setting [1] was 1.03 µM [falling, full curve].

As to `NC(=O)C1(NC(=O)[C@@H]2CC3(CC(c4cccc(NC(=O)[C@@H]5CCC(=O)N5)c4)=NO3)CN2C(=O)c2ccccc2)CC1` (some centres undefined), the cell number change was -3.83%. Besides, under setting [1], the AC50 was 29.1 µM [rising, single point].

`CCOC(=O)N1CCN(C(=O)c2sc3nc(-c4ccc(F)cc4)cn3c2C)CC1`: the cell number change amounted to 82.6%. Further, the AC50 under setting [2] was 7.31 µM [rising, partial curve, poor fit]. In addition, the AC50 under setting [1] is 0.82 µM [rising, partial curve, poor fit].

Take `CC(C)(C)n1ncc2c(=O)n(Cc3c(Cl)cccc3Br)cnc21`: the cell number change was -43.9%. For the same molecule, the AC50 under setting [2] was 32.6 µM [falling, single point]. Moreover, the AC50 under setting [1] was 9.2 µM [falling, single point].

Turning to `Cc1cccc(NC(=O)CN2CCN(C(=O)c3oc4c(Cl)cccc4c3C)CC2)c1C`, the cell number change came to 6.51%. Further, the concentration at half-maximal activity (AC50) under setting [2] is 0.00517 µM [rising, full curve, poor fit]. Also, under setting [1], the AC50 was 1.3 µM [rising, full curve].

`O=[N+]([O-])c1ccc(C[n+]2cccc(O)c2)cc1`: the cell number change is 18.1%. For the same molecule, under setting [2], the AC50 was 0.461 µM [rising, full curve, poor fit]. For the same molecule, the AC50 under setting [1] was 0.651 µM [rising, full curve, poor fit].

Regarding `O=C(Nc1ccc(OC(F)(F)F)cc1)C1CC(=O)N(Cc2ccco2)C1` (centres undefined), the cell number change is -13.4%. Under setting [2], the concentration at half-maximal activity (AC50) is 0.00517 µM [falling, full curve, poor fit]. Also, the AC50 under setting [1] is 0.0058 µM [falling, full curve, poor fit].

As to `CCOc1ccccc1/C=C/C(=O)c1ccc(Cl)cc1`, the cell number change was -1.81%. Further, the AC50 under setting [1] was 4.11 µM [falling, single point].

`O=C(/C=C/c1ccco1)Oc1cc(Br)cc(/C=N/NC(=O)c2ccccc2O)c1`: the cell number change was -15.9%. The AC50 under setting [1] was 16.4 µM [falling, single point].

In the case of `Nc1nc(-c2ccc3c(c2)CCCC3)cs1`, the cell number change was -50.4%. Besides, under setting [2], the AC50 is 18.4 µM [falling, partial curve].

On to `O=C1CCc2cc(S(=O)(=O)N3CCN(c4ccccc4)CC3)cc3c2N1CCC3`, for which the cell number change came to 9%. In addition, under setting [1], the AC50 is 3.66 µM [rising, single point].

Regarding `O=C(NC(=O)c1cccc(OC(F)(F)C(F)F)c1)OC1CCS(=O)(=O)C1` (centres undefined), the AC50 is 0.58 µM [falling, single point] under setting [2] and 0.58 µM [falling, single point] under setting [1].

As to `O=C(Nc1cccc(S(=O)(=O)NC2=NCCC2)c1)c1ccccc1OC(F)F`, the AC50 under setting [1] is 29.1 µM [rising, single point].

`O=C(O)c1ccc2nc(-c3ccco3)c(-c3ccco3)nc2c1`: the cell number change came to 11.5%. The AC50 under setting [2] was 0.00461 µM [rising, full curve, poor fit].

With `CC(C)(CN1CCN(c2ccccc2)CC1)NS(=O)(=O)c1ccccc1`, the cell number change is -21.6%.

As to `COC(=O)c1ccc(-c2nn(C)c(=O)c3ccccc23)cc1`, the AC50 under setting [1] is 6.51 µM [rising, single point].

As to `CCC(C)C(NS(=O)(=O)c1ccc(C)cc1)C(=O)O` (centres undefined), the cell number change turned out to be 36.3%. Further, under setting [2], the AC50 was 2.31 µM [rising, full curve]. Also, under setting [1], the AC50 was 2.31 µM [rising, full curve, poor fit].

As for `CNC(=S)NNC(=O)c1sccc1OCc1ccc(C)cc1`, the cell number change was 150%.

With `COc1ccc(C(=O)C2CCCN(C(=O)c3cc(C4CC4)[nH]n3)C2)c(C)c1` (centres undefined), the cell number change is -10.1%. Moreover, under setting [2], the AC50 is 6.51 µM [falling, single point].

In the case of `Cc1noc(C)c1C(=O)OCC(=O)c1ccc[nH]1`, the cell number change is 8.66%. In addition, the AC50 under setting [2] is 0.82 µM [rising, full curve].

With `CCCCNc1c(-c2ccc(-c3cccc(Cl)c3)cc2)nc2ccccn12`, under setting [1], the AC50 was 1.84 µM [falling, partial curve].

For the molecule `CC(=O)c1ccc(Sc2nnnn2-c2ccccc2)c([N+](=O)[O-])c1`, the cell number change is -15.4%. Further, the AC50 under setting [1] was 29.1 µM [falling, single point].

Turning to `CC(=O)c1ccc(N2CCN(C(=O)c3ccc(C(=O)c4ccccc4)cc3)CC2)cc1`, the cell number change is -23.1%. Besides, the AC50 under setting [1] was 6.51 µM [rising, single point].

On to `CCc1ccc(NC(=O)C2CCCN2C(=O)NC2CCCCC2)cc1` (centres undefined), for which the cell number change is 30.8%. In addition, the AC50 under setting [2] is 6.51 µM [rising, partial curve, poor fit]. The AC50 under setting [1] is 5.17 µM [rising, single point].

On to `Cc1nc2ccccn2c1C(=O)Nc1ccc(Cl)cc1`, for which the cell number change came out at 8.75%. Besides, the AC50 under setting [1] is 0.291 µM [rising, full curve].

In the case of `NC(=O)CCS(=O)(=O)c1ccccc1`, the cell number change was found to be 0.572%.

With `Cc1nc(NC(=O)COC(=O)c2cccs2)c(Cl)cc1Cl`, the cell number change was determined as 75%. The AC50 under setting [2] was 29.1 µM [rising, partial curve, poor fit].

For the molecule `COCCNc1nc(SCc2ccccc2)nc2sc3c(c12)CCC3`, the cell number change is -5.2%. For the same molecule, the AC50 under setting [1] is 29.1 µM [falling, single point].

Turning to `CCc1ccccc1N(C(=O)CNC(=O)c1ccco1)C(C(=O)NC1CCCC1)c1cccnc1` (centres undefined), the cell number change was -8.97%. In addition, the AC50 under setting [2] is 3.26 µM [rising, partial curve]. Besides, under setting [1], the AC50 is 0.116 µM [falling, full curve, poor fit].

As for `COC(=O)CSc1nnc(-c2ccncc2)n1N`, the cell number change was -44.4%. Also, the AC50 under setting [2] was 29.1 µM [falling, single point].

For the molecule `CN(C)c1ccc(C(=O)c2ccccc2)cc1`, the cell number change worked out at 63.9%. Moreover, under setting [2], the AC50 was 13 µM [rising, partial curve, poor fit]. Moreover, the AC50 under setting [1] is 6.51 µM [rising, single point].

In general, AC50 refers to the midpoint of the concentration-response curve, whichever way the signal moves.
